# Measured values: publication PMC6937817
# Amino acid sequences for entries named in this document (tags omitted). A change or cut given only in a name is not applied to a line headed by its entry.
# UniProt Q13444: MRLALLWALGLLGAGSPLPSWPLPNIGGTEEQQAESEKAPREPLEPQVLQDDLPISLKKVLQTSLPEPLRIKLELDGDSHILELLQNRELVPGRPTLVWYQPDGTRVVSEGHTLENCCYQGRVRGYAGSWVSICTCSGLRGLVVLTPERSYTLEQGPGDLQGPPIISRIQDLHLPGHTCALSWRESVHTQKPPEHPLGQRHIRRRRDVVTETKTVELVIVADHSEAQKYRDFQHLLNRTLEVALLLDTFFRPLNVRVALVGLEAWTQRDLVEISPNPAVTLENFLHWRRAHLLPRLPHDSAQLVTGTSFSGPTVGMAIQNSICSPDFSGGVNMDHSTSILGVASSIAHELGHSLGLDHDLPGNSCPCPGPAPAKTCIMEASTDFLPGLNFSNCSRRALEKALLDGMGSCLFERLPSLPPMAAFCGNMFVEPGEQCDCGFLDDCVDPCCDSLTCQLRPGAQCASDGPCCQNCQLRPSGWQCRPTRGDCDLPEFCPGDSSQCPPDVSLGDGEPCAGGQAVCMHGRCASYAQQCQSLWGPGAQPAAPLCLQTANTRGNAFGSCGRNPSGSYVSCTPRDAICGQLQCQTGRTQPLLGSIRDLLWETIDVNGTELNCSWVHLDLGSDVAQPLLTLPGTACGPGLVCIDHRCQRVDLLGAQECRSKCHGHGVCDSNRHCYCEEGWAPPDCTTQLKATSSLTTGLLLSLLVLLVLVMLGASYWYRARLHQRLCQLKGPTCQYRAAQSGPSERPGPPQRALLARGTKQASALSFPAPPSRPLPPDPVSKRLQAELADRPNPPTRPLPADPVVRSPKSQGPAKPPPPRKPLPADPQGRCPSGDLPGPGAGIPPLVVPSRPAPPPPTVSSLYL
# UniProt O43184: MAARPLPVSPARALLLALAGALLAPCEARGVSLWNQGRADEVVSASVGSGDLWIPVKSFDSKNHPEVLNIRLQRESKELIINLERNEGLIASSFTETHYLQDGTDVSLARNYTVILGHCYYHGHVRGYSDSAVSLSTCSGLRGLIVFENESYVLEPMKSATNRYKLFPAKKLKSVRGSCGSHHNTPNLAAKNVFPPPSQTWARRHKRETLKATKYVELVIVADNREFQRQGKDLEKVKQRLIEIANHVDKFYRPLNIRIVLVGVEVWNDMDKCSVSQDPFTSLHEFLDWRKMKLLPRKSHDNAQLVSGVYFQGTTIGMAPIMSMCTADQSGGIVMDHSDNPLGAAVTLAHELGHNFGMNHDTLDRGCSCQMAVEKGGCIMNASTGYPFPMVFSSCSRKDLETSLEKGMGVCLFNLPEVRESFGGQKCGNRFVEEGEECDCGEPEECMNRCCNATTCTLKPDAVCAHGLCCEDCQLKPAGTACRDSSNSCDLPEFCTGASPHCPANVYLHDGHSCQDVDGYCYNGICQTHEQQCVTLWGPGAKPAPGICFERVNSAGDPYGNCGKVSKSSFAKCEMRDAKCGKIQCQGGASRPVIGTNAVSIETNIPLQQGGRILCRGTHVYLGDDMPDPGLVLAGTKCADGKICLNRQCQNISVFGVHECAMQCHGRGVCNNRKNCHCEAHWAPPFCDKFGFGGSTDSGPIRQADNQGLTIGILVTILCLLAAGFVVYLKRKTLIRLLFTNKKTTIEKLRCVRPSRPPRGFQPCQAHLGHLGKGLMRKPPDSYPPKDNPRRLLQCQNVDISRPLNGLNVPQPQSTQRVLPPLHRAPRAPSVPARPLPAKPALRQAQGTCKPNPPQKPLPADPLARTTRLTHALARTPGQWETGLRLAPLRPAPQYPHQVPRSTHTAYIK
# Target: T1, Aspartate β-hydroxylase (UniProt Q12797)
# T1 sequence: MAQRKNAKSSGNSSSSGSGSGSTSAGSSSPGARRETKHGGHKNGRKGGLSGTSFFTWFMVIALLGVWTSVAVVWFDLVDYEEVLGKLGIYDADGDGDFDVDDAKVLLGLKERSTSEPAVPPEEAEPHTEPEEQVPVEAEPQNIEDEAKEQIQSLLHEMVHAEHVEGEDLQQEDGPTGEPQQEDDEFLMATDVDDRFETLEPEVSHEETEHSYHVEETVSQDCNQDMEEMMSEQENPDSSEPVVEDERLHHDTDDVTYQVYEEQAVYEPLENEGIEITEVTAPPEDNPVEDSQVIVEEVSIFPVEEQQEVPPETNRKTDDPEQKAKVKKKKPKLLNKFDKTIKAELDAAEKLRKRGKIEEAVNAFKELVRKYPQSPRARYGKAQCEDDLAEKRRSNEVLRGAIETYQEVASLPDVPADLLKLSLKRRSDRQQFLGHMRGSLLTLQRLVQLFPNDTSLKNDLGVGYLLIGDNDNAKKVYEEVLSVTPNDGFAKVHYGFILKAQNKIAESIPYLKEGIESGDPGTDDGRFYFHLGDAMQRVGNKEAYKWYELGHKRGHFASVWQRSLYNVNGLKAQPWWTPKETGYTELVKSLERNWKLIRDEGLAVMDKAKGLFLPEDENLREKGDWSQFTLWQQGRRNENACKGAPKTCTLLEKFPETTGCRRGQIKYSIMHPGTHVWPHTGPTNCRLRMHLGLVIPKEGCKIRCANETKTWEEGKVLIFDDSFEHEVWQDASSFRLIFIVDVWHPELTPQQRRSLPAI
# Assay: co-IP; HEK293 cells transfected with a total of 10 μg corresponding plasmids; harvested in PBS containing 1% NP40; detection by Western blot; which protein was precipitated is not told
row,binding,Substance
1,binds,ADAM15 (from UniProt Q13444)
2,binds,ADAM12 (from UniProt O43184)

# These are yes or no findings as the source states them, for the method shown. In cells and extracts the contact can be indirect. A result given as binding can be weak or reduced; the word gives no strength.
